Hit rate of the full screen: of about 1,400 compounds, about 50 (4%) were called active.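 Rule for the calls: active = fitted curve reaches 30% CPE protection at or below the top valid dose, with every test run called active; inconclusive = test runs disagree, some active and some not; inactive = every test run inactive, including effects in the wrong direction.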 The list shows a part of the results. Results with a measured potency or affinity are listed apart.
test: antiviral rescue of DENV2-infected BHK-21 cells – cell-based, ATP luminescence, cherry-pick, dose response (AID 687031); conditions: BHK-21 DENV2 CPE protection, 5 d; at 19.5 µM (top of the series) unless noted;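 note: 0% = infected DMSO wells and 100% = uninfected cell wells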

Row | SMILES | CPE protection (higher = active)
1 | CC(C)OC(=O)c1ccc(NCc2cc(O)ccc2O)cc1 | inactive: -7.2%
2 | COc1ccc(-c2nc(CN3CCC(C(=O)N4CCOCC4)CC3)c(C)o2)c(OC)c1 | inactive: -16%
3 | CNC[C@@H]1OCCCC[C@H](C)Oc2ccc(NS(C)(=O)=O)cc2C(=O)N([C@@H](C)CO)C[C@@H]1C | inactive: -0.061%
4 | CCNC(=O)C1(C)CCN(Cc2noc(-c3c(C)noc3C)n2)C1 (centres undefined) | inactive: 2.45%
5 | COc1ccc(S(=O)(=O)N2CCC(C(=O)NCCC(=O)NCc3ccccn3)CC2)cc1 | inactive: -22.1%
6 | CCN=C1NC(c2ccccc2C(F)(F)F)C(C(=O)OC)=C(C)N1C (centres undefined) | inactive: 11%
7 | CCCOc1cccc(C(=O)Nc2ccc(CN3CCOCC3)cc2)c1 | inactive: -3.61%
8 | CC(C)NC(=O)N(C)C[C@@H]1Oc2ccc(NC(=O)Cc3cn(C)c4ccccc34)cc2C(=O)N([C@@H](C)CO)C[C@H]1C | inactive: -10.3%
9 | COc1ccc(CC(=O)Nc2ccc(S(=O)(=O)Nc3cc(C)nc(C)n3)cc2)cc1OC | inactive: 2.13%
10 | CN1c2ccc(Br)cc2[C@@H]2[C@@H](CCN2S(=O)(=O)c2ccccc2)[C@H]1CO | inactive: -16.7%
11 | CN(C)CCCNc1cc(O)c2ncccc2c1 | inactive: -6.23%
12 | COc1ccc(-c2nc(NCCCN(C)C)c3ccccc3n2)cc1 | inactive: -0.736% [at 10 µM]
13 | COc1ccc2c3c([nH]c2c1)[C@@H](CO)N(Cc1ccc(F)cc1)CC31CN(C(=O)NC(C)C)C1 | inactive: 5.5% [at 21 µM]
14 | O=C(Nc1ccccc1C(F)(F)F)C(O)(c1ccccc1)C1CCCCC1 (centres undefined) | inactive: -25.2%
15 | COC(=O)C(Cc1csc2ccc(Cl)cc12)NC(=O)c1ccc(Cl)cc1 (centres undefined) | inactive: 4.11%
16 | O=C(NC1CC1)c1cccc(NC(=O)c2cc(S(=O)(=O)N3CCOCC3)ccc2Cl)c1 | inactive: -15%
17 | COc1cccc(CNC(=O)[C@H]2[C@H](CO)[C@H]3Cn4c(ccc(-c5ccncc5)c4=O)[C@H]3N2C)c1 | inactive: -6.96%
18 | CCc1ccc2cc(C)cc(C)c2n1 | inactive: 28.8%
19 | O=C(Nc1ccc(S(=O)(=O)NC2=NCCCCC2)cc1)c1cccs1 | inactive: -16.1%
20 | O=C(N[C@@H]1c2ccccc2CC[C@@H]1OCc1ccccc1)c1ccc(C(F)(F)F)cc1 | inactive: -6.3%
21 | CCOC(=O)CN1CC23C=CC(O2)C(C(=O)NCCc2ccccc2)C3C1=O (centres undefined) | inactive: -15.2%

Part of the list above, in markdown:

| Row | SMILES | CPE protection (higher = active) |
| --- | --- | --- |
| 10 | CN1c2ccc(Br)cc2[C@@H]2[C@@H](CCN2S(=O)(=O)c2ccccc2)[C@H]1CO | inactive: -16.7% |
| 11 | CN(C)CCCNc1cc(O)c2ncccc2c1 | inactive: -6.23% |
| 12 | COc1ccc(-c2nc(NCCCN(C)C)c3ccccc3n2)cc1 | inactive: -0.736% [at 10 µM] |
| 13 | COc1ccc2c3c([nH]c2c1)[C@@H](CO)N(Cc1ccc(F)cc1)CC31CN(C(=O)NC(C)C)C1 | inactive: 5.5% [at 21 µM] |
| 14 | O=C(Nc1ccccc1C(F)(F)F)C(O)(c1ccccc1)C1CCCCC1 (centres undefined) | inactive: -25.2% |
| 15 | COC(=O)C(Cc1csc2ccc(Cl)cc12)NC(=O)c1ccc(Cl)cc1 (centres undefined) | inactive: 4.11% |

(more compounds)

Row | SMILES | CPE protection (higher = active)
22 | CC1CCc2sc(C(=O)NN=C3CCCC3)cc2C1 (centres undefined) | inactive: -28.9%
23 | Cc1ccc(S(=O)(=O)Cc2ccccc2Cl)cc1 | inactive: -2.23%
24 | CN(Cc1nc2ccccc2c(=O)[nH]1)C(=O)c1cccc(S(=O)(=O)N2CCc3ccccc32)c1 | inactive: -17.6%
25 | Cc1cc(OCC(=O)NC(Cc2ccc(Cl)cc2)C(=O)O)c2c(C)c(C)c(=O)oc2c1 (centres undefined) | inactive: -6.1%
26 | CC(NC(=O)c1ccccc1)C(=O)OCn1nnc2ccccc2c1=O (centres undefined) | inactive: 9.01%
27 | C[C@@H]1CCCCO[C@@H](CN(C)C(=O)c2ccccc2)[C@@H](C)CN([C@@H](C)CO)C(=O)c2cc(NS(=O)(=O)c3ccc(F)cc3)ccc2O1 | inactive: -2.27%
28 | COc1ccc(NC(=O)C2C(c3ccc4c(c3)OCO4)=Nc3ccccc3N2C(C)=O)cc1 (centres undefined) | inactive: -5.17%
29 | COc1ccc(CNC(=O)COC(=O)CN2C(=O)NC3(CCCC3)C2=O)cc1 | inactive: 0.804%
30 | Cc1ccc(NC(=O)c2ccc3c(c2)CCN3S(C)(=O)=O)cc1 | inactive: -2.19%
31 | c1cc(-c2ccc(N3CCOCC3)cc2)n2cnnc2c1 | inactive: 0.764%
32 | Cc1cccc(C)c1OCC(O)Cn1ccnc1C (centres undefined) | inactive: -6.37%
33 | Cc1cc(N2CCN(C)CC2)n2nc(-c3ccc(Cl)cc3)nc2n1 | inactive: 17.3%
34 | Cc1nc(C(F)(F)F)ccc1C(=O)N1CCC1(C)C(=O)NCc1ccc(Cl)cc1 (centres undefined) | inactive: 0.045%
35 | COc1ccc(-c2cc(N)n(S(=O)(=O)c3ccc(C)cc3)n2)c(OC)c1 | inactive: 2.33%
36 | O=C(NCCN1CCOCC1)c1ccc2c(c1)N(Cc1ccc(F)cc1)C(=O)CS2 | inactive: 20.8%
37 | COc1ccc(-c2cn(CC[C@@H]3CC[C@H](NC(=O)Nc4ccc(F)cc4)[C@H](CO)O3)nn2)cc1 | inactive: -7.67%
38 | Cc1ccc(S(=O)(=O)NCC(=O)OCC(=O)N(Cc2ccccc2)C(C)(C)C)cc1 | inactive: 4.31%
39 | O=C(Nc1ccccc1)c1ccccc1CSc1ccccc1 | inactive: -6.7%
40 | CC1CC2=C(C(=O)O1)C(c1ccc(Cl)cc1)Nc1ccccc1N2 (centres undefined) | inactive: 24%
41 | C=CCNc1nc(C(=O)OCC(=O)NCc2ccccc2OC)cs1 | inactive: 20.2%
42 | N#CCc1ccc(NC(=O)c2cc(S(=O)(=O)N3CCOCC3)ccc2Cl)cc1 | inactive: 15.9%

Row | SMILES | CPE protection (higher = active)
43 | COc1cc(O)c(C(CC(=O)N2CCCC(C)C2)c2cc(OC)c(OC)c(OC)c2)c(OC)c1 (centres undefined) | inactive: 6.44%
44 | O=C(COC(=O)c1ccc2c(c1)OCO2)NC1CCCCC1 | inactive: -8.27%
45 | CC1CCCN(CCOc2cccc(Oc3ccccc3)c2)C1 (centres undefined) | inactive: -24.1%
46 | O=C(NCC1CCCO1)c1ccccc1OCc1ccc(Cl)cc1 (centres undefined) | inactive: -6.09%
47 | COc1ccc(C2CC(c3ccccc3)=NN2S(=O)(=O)c2ccccc2)c(OC)c1 (centres undefined) | inactive: 3.18%
48 | c1ccc(-c2csc(-c3ccc(-c4csnn4)cc3)n2)cc1 | inactive: -25%
49 | Cc1cccc(OCCCN2CCC(C(O)(c3ccccc3)c3ccccc3)CC2)c1 | inactive: -3.09%
50 | CCC(=O)N1CC[C@@H]2[C@H]1c1cc(C#Cc3cccc(F)c3)ccc1N(C)[C@H]2CO | inactive: -6.48%
51 | CCOC(=O)C(=C1Nc2ccccc2N1)n1c(-c2cnccn2)nc2ccccc21 | inactive: -5.6%
52 | Cc1cccc(C)c1NC(=O)C1(C)CSCC(=O)N1Cc1cccc(C(F)(F)F)c1 (centres undefined) | inactive: -22.9%
53 | Cc1c(C(=O)N2CCCC2)oc2ccc(Br)cc12 | inactive: -4.23%
54 | COc1ccc(CCN2CC(C(=O)NCCc3cn[nH]c3)CCC2=O)cc1 (centres undefined) | inactive: -10.8%
55 | CCOC(=O)Cn1c(=O)oc2cc(S(=O)(=O)NC3CCCc4ccccc43)ccc21 (centres undefined) | inactive: -9.97%
56 | C[C@@H]1CCCCO[C@@H](CN(C)Cc2ccccc2)[C@@H](C)CN([C@H](C)CO)C(=O)c2cc(NC(=O)c3ccccc3)ccc2O1 | inactive: -12.4% [at 21 µM]
57 | CCN(c1ccccc1)S(=O)(=O)c1ccc(C(=O)N2CCN(c3ccccc3F)CC2)cc1 | inactive: 0.734%
58 | CC(C)c1ccc(NC(=O)Nc2nc(C(N)CCc3ccccc3)cs2)cc1 (centres undefined) | inactive: -17.6%
59 | O=c1c2cc(Br)ccc2[nH]c(=S)n1Cc1ccccn1 | inactive: -32.1% [at 10 µM]
60 | O=C(Nc1ccc2c(c1)OCO2)c1cc(C2CCCCN2C(=O)OCCF)on1 (centres undefined) | inactive: -1.38%
61 | OC(c1ccccc1)(c1ccccc1)C1CCN(CCCOc2cccc(F)c2)CC1 | inactive: -4.63%
62 | COc1ccc(-c2c(-c3cc(OC)cc(OC)c3)n(C)c3ccc(Br)cc23)cc1 | inactive: -4.38%
63 | CCOc1ccc(N(CC(=O)NC2CCCCC2)C(=O)CNC(=O)c2cccs2)cc1 | inactive: -6.55%

Row | SMILES | CPE protection (higher = active)
64 | COCCNC(=O)c1cc2cc3ccc(OC)cc3nc2o1 | inactive: 16.9%
65 | O=C(Nc1cccc(S(=O)(=O)N2CCCCCC2)c1)c1ccc2ccccc2n1 | inactive: -22.6%
66 | Cc1ccc(S(=O)(=O)N(C)C[C@H]2Oc3ccc(NS(=O)(=O)c4ccc(F)cc4)cc3C(=O)N([C@H](C)CO)C[C@@H]2C)cc1 | inactive: -17% [at 21 µM]
67 | CN1c2ccc(Br)cc2[C@H]2[C@H](CCN2C(=O)C2CCC2)[C@H]1CO | inactive: 14.8% [at 21 µM]
68 | COC(=O)CCc1cccc(CCC(=O)OC)c1 | inactive: -3.04%
69 | O=C(O)c1cccc(-c2csc(C(O)c3cccc(Cl)c3)n2)c1 (centres undefined) | inactive: -5.26%
70 | CN(CCC1CCCCO1)C(=O)CCc1nnc(CCc2ccccc2)o1 (centres undefined) | inactive: -16%
71 | COc1ccccc1NCC(=O)N/N=C(\C)c1ccc(Br)s1 | inactive: 18.7% [at 10 µM]
72 | CCCCCC(=O)N1C[C@@H](n2cc(C3CC3)nn2)[C@H](O)C[C@@H]1c1ccccc1 | inactive: -7.51%
73 | O=S1(=O)CCO[C@H]2Cc3ccccc3[C@H]2N1Cc1ccc(Cl)cc1 | inactive: 16.6%
74 | CNS(=O)(=O)c1cccc(C(=O)OCC(=O)N2c3ccccc3NC(=O)C2(C)C)c1 | inactive: -7.28%
75 | CC(=O)Nc1scc(C)c1-c1nc2ccccc2s1 | inactive: 25.4%
76 | Cc1ccc(S(=O)(=O)c2nnn3c2nc(N2CCOCC2)c2ccccc23)cc1C | inactive: 18.2%
77 | COC(=O)C[C@@H]1OC[C@H](Cc2ccccc2)N1S(=O)(=O)c1ccc(C)cc1 | inactive: 9.14%
78 | CCOC(=O)Cc1sc(N)nc1C | inactive: 2.39%
79 | COc1ccc(-c2csc(C(C)(O)c3ccc(F)c(F)c3)n2)cc1OC (centres undefined) | inactive: -6.35%
80 | CCc1nc2c(OCCc3cccc(OC)c3)cccn2c1N(C)C(=O)c1ccc(C)cc1 | inactive: 3.2%
81 | CCC(=O)Nc1cc(C(=O)OCc2ccc(C(=O)Oc3ccccc3)cc2)ccc1C | inactive: 10.7%
82 | O=C(O)[C@]1(S(=O)(=O)c2ccccc2)C[C@@H]2ON=C(c3cccc(Br)c3)[C@@H]2C1 | inactive: 9.9%
83 | Fc1ccc(-c2csc(-c3ccc(C4SCCS4)cc3)n2)cc1F | inactive: 6.64%
84 | Cc1noc(C)c1S(=O)(=O)Nc1ccc2c(c1)C(=O)N([C@@H](C)CO)C[C@@H](C)[C@@H](CN(C)C(=O)Nc1ccccc1)OCCCC[C@@H](C)O2 | inactive: 34% [at 10 µM]

— PubChem BioAssay AID687031 (Broad Institute, 2013)
